# Assay results: paper PMC9095901
# The chains behind the UniProt entries cited, without tags or fusion partners. Residues count along the entry.
# UniProt O00206, residues 24-839: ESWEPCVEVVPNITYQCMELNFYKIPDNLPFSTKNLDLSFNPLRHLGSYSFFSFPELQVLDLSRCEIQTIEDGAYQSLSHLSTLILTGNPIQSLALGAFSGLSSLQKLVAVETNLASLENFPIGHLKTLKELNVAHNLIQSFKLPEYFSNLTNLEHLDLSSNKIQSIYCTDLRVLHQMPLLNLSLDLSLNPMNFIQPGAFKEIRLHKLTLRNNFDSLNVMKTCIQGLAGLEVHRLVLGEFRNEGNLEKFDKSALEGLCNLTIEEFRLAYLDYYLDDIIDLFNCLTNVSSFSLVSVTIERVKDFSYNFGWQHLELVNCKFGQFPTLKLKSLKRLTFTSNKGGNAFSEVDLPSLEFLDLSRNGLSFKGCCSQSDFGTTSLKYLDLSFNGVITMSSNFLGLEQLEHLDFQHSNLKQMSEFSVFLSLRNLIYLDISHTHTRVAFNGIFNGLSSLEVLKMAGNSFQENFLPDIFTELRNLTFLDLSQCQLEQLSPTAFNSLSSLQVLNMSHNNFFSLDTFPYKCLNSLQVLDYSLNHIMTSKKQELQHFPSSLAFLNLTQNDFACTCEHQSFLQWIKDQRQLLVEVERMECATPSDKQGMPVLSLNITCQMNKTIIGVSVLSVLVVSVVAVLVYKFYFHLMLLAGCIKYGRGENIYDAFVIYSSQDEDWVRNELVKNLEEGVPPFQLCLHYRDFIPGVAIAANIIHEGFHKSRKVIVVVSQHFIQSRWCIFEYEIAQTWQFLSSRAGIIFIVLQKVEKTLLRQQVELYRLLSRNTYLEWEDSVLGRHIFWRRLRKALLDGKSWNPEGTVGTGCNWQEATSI
# UniProt P06748: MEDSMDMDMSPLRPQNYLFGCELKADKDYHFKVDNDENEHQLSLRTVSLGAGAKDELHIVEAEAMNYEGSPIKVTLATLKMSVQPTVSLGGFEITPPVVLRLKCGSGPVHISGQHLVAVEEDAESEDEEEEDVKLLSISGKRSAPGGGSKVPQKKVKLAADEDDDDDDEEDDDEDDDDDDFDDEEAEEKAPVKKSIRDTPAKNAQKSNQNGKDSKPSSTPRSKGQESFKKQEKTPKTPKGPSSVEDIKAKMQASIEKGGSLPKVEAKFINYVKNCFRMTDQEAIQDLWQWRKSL
# These are yes or no findings as the source states them, for the method shown. Binding seen in cells or lysates may run through a third protein. Some binding calls cover weakened binding; strength is not graded here.
# Columns and labels:
# [1] = molecular target: Toll-like receptor 4 (TLR4) (human (endogenous in HaCaT and human skin fibroblasts)) (UniProt O00206); test: proximity ligation; DuoLink in situ PLA with anti-NPM1 (ab15440) and anti-TLR4 (sc-293072) on fixed, non-permeabilised HaCaT cells, serum-starved, with or without cytokine MIX (IL-17A, IL-22, TNF-alpha, IFN-gamma) for 8 h; red dots per nucleus counted
# [2] = molecular target: Toll-like receptor 4 (TLR4) (human (endogenous in HaCaT and human skin fibroblasts)) (UniProt O00206); test: proximity ligation; DuoLink in situ PLA with anti-NPM1 (ab15440) and anti-TLR4 (sc-293072) on fixed, non-permeabilised primary human fibroblasts of healthy subjects, serum-starved, with or without cytokine MIX (IL-17A, IL-22, TNF-alpha, IFN-gamma) for 8 h; red dots per nucleus counted
substance,measurement,setting,value
"Nucleophosmin (NPM), extracellular (from UniProt P06748 1-294)",binding,[1],binds
same,binding,[2],binds
